Binding data for one substance are collected here from PMC8430637.

By UniProt entry, the sequences of proteins in these tests, tags left out.
UniProt Q7Z6Z7: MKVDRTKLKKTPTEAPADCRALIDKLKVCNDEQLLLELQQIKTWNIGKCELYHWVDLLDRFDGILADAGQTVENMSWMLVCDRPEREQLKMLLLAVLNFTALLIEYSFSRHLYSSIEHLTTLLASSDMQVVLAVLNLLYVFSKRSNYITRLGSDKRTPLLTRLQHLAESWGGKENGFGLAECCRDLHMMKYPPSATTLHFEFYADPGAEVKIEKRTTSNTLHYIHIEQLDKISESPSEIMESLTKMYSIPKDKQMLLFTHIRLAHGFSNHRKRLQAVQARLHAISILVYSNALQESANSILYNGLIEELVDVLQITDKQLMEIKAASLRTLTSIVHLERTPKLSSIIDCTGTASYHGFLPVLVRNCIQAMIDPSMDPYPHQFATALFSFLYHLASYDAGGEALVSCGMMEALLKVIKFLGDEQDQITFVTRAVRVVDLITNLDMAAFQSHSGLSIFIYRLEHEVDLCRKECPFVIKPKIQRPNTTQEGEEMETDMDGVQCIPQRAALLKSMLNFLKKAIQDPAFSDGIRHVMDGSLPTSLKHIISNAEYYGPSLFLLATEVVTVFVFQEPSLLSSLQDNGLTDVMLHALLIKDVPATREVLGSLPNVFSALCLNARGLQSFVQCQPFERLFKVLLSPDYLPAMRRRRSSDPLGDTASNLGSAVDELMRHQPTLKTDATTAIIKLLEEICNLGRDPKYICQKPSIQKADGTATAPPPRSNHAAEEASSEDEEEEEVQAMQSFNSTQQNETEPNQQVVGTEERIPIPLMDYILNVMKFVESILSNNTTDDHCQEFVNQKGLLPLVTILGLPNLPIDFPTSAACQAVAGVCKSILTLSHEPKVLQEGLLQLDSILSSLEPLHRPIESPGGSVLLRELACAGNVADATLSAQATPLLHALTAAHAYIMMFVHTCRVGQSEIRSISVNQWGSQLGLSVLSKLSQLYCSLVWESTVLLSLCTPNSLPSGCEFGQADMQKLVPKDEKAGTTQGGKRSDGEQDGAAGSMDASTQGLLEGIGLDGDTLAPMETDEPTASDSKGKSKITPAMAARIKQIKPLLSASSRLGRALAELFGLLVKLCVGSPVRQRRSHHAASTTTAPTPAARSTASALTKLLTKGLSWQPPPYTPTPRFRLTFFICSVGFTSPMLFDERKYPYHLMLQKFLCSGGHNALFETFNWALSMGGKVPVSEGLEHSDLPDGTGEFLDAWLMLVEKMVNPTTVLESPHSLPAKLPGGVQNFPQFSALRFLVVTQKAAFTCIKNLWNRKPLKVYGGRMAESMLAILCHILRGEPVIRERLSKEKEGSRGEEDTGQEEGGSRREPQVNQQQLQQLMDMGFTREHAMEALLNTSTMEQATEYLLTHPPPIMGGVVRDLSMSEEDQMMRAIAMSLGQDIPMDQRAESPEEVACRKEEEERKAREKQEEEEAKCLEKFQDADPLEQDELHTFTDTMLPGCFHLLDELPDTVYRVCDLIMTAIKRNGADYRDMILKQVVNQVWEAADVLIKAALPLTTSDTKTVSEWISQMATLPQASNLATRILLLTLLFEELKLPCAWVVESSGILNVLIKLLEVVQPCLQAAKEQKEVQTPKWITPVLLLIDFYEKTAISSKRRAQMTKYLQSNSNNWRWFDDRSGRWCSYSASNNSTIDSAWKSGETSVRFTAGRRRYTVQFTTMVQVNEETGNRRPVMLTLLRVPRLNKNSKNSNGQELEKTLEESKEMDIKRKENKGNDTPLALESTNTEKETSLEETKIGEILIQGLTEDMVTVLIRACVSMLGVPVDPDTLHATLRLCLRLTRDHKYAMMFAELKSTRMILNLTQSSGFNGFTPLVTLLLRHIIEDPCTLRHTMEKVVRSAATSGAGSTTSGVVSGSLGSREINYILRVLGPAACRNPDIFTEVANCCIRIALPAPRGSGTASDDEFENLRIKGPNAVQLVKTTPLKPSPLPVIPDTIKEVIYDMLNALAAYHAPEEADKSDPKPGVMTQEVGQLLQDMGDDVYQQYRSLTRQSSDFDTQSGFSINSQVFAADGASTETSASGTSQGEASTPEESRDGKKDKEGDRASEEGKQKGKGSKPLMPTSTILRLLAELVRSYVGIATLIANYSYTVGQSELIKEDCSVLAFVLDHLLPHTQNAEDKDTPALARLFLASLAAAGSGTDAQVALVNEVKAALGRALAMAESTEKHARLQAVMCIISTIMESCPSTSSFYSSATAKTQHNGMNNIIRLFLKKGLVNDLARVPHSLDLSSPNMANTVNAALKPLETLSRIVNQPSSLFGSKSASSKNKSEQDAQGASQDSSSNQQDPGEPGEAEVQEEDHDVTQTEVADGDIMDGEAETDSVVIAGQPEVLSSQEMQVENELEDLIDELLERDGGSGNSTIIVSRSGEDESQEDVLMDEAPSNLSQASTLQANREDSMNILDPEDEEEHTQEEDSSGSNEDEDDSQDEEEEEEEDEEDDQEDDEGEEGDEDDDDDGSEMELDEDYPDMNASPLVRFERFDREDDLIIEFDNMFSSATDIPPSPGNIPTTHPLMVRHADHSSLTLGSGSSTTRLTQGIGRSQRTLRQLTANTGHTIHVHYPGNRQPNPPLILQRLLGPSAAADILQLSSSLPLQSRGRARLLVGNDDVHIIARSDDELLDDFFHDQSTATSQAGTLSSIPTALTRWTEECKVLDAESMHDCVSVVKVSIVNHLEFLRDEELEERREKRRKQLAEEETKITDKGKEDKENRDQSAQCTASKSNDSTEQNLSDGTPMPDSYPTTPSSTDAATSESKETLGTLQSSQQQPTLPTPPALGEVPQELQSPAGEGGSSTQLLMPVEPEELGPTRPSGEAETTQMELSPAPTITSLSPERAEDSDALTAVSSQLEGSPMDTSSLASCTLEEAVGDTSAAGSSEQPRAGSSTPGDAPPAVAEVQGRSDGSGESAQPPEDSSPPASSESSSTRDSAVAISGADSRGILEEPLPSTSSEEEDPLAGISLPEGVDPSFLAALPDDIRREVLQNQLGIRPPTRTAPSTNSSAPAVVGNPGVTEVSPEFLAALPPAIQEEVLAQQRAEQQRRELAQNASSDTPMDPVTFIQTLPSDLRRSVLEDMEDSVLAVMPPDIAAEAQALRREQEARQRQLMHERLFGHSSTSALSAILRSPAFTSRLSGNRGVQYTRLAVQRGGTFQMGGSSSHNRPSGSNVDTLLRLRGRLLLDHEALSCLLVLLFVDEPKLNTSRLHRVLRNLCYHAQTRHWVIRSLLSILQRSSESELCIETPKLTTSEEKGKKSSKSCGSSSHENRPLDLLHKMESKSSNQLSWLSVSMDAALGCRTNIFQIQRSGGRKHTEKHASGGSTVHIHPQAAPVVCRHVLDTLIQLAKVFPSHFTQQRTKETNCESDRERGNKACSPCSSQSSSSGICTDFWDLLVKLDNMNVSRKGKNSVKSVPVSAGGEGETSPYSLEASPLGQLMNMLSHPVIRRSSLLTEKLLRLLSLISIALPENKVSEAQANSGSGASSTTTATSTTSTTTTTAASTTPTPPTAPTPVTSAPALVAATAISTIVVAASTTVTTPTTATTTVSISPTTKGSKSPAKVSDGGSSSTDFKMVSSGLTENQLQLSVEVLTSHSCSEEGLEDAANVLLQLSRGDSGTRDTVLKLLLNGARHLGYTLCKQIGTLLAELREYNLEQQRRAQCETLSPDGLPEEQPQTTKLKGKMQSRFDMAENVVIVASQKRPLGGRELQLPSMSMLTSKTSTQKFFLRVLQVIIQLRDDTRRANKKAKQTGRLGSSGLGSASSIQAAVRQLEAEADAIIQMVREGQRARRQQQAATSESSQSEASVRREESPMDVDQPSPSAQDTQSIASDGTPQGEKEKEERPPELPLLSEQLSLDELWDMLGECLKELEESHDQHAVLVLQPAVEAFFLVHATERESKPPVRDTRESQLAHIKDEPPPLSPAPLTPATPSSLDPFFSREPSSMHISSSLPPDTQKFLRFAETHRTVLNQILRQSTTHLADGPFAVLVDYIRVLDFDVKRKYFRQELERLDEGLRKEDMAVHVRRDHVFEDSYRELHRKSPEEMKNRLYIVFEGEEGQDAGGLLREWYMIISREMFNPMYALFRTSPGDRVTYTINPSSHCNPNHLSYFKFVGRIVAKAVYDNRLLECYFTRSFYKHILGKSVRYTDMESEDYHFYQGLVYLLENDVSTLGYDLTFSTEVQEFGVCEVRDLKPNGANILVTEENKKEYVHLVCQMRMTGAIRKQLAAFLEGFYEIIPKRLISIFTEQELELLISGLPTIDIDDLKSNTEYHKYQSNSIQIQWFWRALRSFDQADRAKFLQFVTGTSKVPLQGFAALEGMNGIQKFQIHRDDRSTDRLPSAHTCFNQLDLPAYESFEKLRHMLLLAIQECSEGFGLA

These are yes or no findings as the source states them, for the method shown. Binding seen in cells or lysates may run through a third protein. A yes stands for co-enrichment or nearness to the bait. Other partners may have been found.

The target of this test is T1, autophagy-related protein 101 (ATG101), endogenous (human (endogenous in MIA PaCa-2)) (UniProt Q9BSB4).
T1 sequence: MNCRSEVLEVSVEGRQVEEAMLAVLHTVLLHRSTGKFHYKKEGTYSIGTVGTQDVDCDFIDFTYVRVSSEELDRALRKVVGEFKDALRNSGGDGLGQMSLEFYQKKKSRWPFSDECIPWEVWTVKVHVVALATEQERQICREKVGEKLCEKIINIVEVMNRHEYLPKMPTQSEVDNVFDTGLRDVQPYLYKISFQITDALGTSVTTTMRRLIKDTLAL
Nature of the test: affinity purification with mass spectrometry; immunoprecipitation of ATG101 from MIA PaCa-2 cells, LC-MS/MS of the immunoprecipitated complex.

For the substance “HECT, UBA and WWE domain containing E3 ubiquitin protein ligase 1 (HUWE1), endogenous (from UniProt Q7Z6Z7 1-4374) (enzyme)”, the binding result is given as “binds”.
